These results are taken from the supplement of paper PMC10032668.

Protein sequences, listed by entry. Tags and fused reporters are not part of them.
POLE, Q07864, UniProt Q07864, whole entry: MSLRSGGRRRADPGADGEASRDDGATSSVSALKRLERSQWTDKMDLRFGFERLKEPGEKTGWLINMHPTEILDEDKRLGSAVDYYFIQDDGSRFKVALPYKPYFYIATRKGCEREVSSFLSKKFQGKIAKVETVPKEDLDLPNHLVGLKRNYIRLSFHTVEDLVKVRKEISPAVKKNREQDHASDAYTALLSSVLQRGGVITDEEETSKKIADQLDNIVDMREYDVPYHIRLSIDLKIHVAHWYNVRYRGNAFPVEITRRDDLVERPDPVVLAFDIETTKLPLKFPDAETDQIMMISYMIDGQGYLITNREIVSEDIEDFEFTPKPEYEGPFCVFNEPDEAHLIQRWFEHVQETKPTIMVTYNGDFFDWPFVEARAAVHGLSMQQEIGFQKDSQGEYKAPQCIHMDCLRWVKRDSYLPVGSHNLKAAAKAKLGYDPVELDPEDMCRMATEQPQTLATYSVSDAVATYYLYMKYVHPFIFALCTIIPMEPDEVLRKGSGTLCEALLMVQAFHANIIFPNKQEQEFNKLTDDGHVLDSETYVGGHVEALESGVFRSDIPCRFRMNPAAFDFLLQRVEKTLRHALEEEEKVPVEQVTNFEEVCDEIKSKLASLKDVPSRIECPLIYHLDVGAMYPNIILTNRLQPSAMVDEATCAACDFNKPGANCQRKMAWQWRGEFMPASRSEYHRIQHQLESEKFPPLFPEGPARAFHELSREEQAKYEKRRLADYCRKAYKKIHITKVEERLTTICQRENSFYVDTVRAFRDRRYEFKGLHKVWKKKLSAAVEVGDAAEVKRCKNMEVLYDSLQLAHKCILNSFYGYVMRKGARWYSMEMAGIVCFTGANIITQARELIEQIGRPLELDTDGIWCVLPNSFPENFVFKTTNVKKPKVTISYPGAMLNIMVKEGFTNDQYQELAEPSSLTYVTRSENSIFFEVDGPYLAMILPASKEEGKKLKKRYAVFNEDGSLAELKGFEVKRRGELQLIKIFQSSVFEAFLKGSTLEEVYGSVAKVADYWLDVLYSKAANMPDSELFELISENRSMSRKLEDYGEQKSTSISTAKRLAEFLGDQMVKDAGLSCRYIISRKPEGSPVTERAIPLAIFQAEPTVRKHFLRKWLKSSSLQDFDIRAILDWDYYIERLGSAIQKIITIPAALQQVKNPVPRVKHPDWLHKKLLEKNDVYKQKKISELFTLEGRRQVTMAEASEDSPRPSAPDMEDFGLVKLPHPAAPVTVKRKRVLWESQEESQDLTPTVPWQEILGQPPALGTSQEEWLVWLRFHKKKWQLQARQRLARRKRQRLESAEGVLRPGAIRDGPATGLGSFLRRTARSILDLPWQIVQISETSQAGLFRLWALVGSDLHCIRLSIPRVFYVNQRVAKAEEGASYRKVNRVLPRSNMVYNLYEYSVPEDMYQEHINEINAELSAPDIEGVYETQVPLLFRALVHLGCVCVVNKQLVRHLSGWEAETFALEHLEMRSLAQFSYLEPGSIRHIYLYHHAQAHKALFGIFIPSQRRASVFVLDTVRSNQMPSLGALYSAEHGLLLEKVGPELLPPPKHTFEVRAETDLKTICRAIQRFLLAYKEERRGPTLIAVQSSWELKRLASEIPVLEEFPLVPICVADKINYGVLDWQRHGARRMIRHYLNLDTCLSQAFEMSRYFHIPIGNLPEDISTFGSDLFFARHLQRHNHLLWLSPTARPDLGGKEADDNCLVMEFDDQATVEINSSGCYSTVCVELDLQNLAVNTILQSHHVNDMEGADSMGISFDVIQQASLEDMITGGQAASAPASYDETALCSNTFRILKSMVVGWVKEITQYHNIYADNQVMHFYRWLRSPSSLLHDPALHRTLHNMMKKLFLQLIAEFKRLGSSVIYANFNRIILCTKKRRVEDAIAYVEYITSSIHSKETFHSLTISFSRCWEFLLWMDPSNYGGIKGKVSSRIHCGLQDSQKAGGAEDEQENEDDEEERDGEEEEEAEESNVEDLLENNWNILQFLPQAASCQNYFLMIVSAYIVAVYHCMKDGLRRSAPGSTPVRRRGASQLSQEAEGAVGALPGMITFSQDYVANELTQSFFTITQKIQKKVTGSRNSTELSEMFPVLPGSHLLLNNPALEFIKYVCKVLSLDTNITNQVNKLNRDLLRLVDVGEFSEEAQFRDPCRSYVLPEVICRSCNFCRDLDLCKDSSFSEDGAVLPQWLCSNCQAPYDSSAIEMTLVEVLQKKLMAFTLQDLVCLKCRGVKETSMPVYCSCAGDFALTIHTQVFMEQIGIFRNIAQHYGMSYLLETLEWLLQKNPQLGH
PSMD11, O00231, UniProt O00231, whole entry: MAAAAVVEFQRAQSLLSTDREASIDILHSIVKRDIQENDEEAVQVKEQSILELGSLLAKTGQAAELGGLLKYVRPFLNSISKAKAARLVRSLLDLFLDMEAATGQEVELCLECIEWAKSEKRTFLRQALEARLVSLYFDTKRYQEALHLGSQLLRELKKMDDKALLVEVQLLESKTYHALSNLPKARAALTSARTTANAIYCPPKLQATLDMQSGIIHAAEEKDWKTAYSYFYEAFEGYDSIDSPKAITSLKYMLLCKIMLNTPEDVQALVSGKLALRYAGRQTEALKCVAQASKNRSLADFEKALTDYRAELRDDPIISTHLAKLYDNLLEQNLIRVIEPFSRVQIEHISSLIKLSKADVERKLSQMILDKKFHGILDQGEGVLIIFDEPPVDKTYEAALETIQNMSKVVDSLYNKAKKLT

Holding throughout (assay): PRISMA enrichment of interactor (LFQ) in peptide spot vs all other peptide spots (log2 fold change); higher = stronger / more specific binding of the interactor to the peptide
One experiment has as its target ASCC2, Q9H1I8. As to the method:
(§1)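 PRISMA: 15-aa overlapping tiles (offset 8 aa) of 60 microproteins, plus SOS1/GLUT1 control peptides, were spot-synthesized on cellulose membranes in triplicate. Membranes were incubated with benzonase-treated HEK293T lysate, and bound proteins were identified by LC-MS/MS with LFQ. Enrichment is the log2 fold change of each protein in one spot versus all other spots. Only interactors passing the significance cutoff are listed.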

For the next experiment, the target named is DDX27, Q96GQ7. The method, then: as §1
The next experiment deals with KPNA6, O60684. The method, then: as §1
A further experiment addresses MRPL13, Q9BYD1. The method, then:
as §1

A further experiment deals with MT-ATP6, P00846. The method, then: as §1
The next experiment deals with ARL6IP5, O75915. The method, then:
as §1

For another experiment, the target named is C19orf53, Q9UNZ5. As to the method: as §1
The target of another experiment is CDC5L, Q99459. The method, then:
as §1

Another experiment deals with DOCK7, Q96N67. As to the method:
as §1

For the next experiment, the target named is EDF1, O60869. As to the method:
as §1

The target in the next experiment is G3BP1, Q13283. As to the method:
as §1

The next experiment deals with GTPBP4, Q9BZE4. The method, then:
as §1

Another experiment has as its target HUWE1, Q7Z6Z7. The method, then:
as §1

Another experiment has as its target NCAPG, Q9BPX3. As to the method:
as §1

The target of a further experiment is ODF2, Q5BJF6. The method, then:
as §1

The next experiment deals with PABPN1, Q86U42. As to the method:
as §1

Another experiment concerns the target PEX11B, O96011. The method, then:
as §1

For a further experiment, the target named is PNO1, Q9NRX1. As to the method:
as §1

In a further experiment the target is POLE, Q07864. The method, then: as §1
The target in a further experiment is PSMD11, O00231. The method, then: as §1
A further experiment has as its target RBM33, Q96EV2. The method, then: as §1
Another experiment addresses RBMS1, P29558. The method, then:
as §1

In a further experiment the target is SLC30A7, Q8NEW0. The method, then:
as §1

A further experiment deals with SNX27, Q96L92. The method, then:
as §1

Another experiment concerns the target TEX264, Q9Y6I9. As to the method: as §1

The list shows a part of the results. The list holds hits alone, and they repeat only in part.

With ANNLAGVFRLFHWLT [CTD-2366F13.1], the “PRISMA enrichment of interactor (log2)” value was found to be 7.4 in the experiment with ASCC2, Q9H1I8; 4.98 with DDX27, Q96GQ7; 4.84 in the experiment with KPNA6, O60684; 5.16 with MRPL13, Q9BYD1; 4.45 in the experiment with MT-ATP6, P00846.

For MLPLPSQVGSRYLLS [CUL5], the “PRISMA enrichment of interactor (log2)” value was determined as 5.44 with ARL6IP5, O75915; 6.88 with C19orf53, Q9UNZ5; 7.94 with CDC5L, Q99459; 3.92 with DOCK7, Q96N67; 6.26 with EDF1, O60869; 5.5 in the experiment with G3BP1, Q13283. Also, the “PRISMA enrichment of interactor (log2)” value was determined as 6.44 in the experiment with GTPBP4, Q9BZE4; 9.97 with HUWE1, Q7Z6Z7; 5.81 with NCAPG, Q9BPX3; 8.78 in the experiment with ODF2, Q5BJF6; 5.89 with PABPN1, Q86U42; 4.19 with PEX11B, O96011. Moreover, the “PRISMA enrichment of interactor (log2)” value in the experiment with PNO1, Q9NRX1 came to 4.99; with POLE, Q07864 it was 4.2; with PSMD11, O00231 it was 5.09; with RBM33, Q96EV2 it was 5.82; in the experiment with RBMS1, P29558, 5.99; with SLC30A7, Q8NEW0 it was 7.97. Besides, the “PRISMA enrichment of interactor (log2)” value with SNX27, Q96L92 is 7.75; with TEX264, Q9Y6I9, 4.01.
